Results are given in words; binding and its absence hold for the method and conditions named. Binding seen in cells or lysates may run through a third protein. These calls come from enrichment with a bait or labelling near it, and not all partners need be listed. For some assays here: Tags and fused reporters may be left off the sequences shown. One block for each binder: values may come before it.
Legend:
[1] = biological target: T1, Dcp1-myc (S. cerevisiae) (UniProt Q12517); assay: affinity purification with mass spectrometry; cells unstressed or glucose-depleted (10 min for Dcp1-myc, 60 min for Pbp1-myc), cross-linked with 0.8% formaldehyde; 20,000 g pellet of the lysate in Blob100 buffer (20 mM Tris-HCl pH 8, 100 mM NaCl, 1 mM MgCl2, 0.5% NP40) on anti-c-Myc magnetic beads, eluted with Myc peptide; label-free LC-MS/MS; hits are the proteins that cluster (Mfuzz) with the tagged bait across IP, pellet, supernatant, total and unbound fractions
T1 sequence: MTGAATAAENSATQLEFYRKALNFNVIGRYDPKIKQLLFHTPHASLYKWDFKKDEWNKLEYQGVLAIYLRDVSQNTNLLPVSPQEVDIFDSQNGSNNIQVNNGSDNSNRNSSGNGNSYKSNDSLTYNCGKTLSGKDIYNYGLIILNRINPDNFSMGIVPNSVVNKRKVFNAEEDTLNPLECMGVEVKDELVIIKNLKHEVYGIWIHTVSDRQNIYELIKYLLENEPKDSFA

Chains of the proteins cited; added tags and fusions are not shown.
UniProt P53297: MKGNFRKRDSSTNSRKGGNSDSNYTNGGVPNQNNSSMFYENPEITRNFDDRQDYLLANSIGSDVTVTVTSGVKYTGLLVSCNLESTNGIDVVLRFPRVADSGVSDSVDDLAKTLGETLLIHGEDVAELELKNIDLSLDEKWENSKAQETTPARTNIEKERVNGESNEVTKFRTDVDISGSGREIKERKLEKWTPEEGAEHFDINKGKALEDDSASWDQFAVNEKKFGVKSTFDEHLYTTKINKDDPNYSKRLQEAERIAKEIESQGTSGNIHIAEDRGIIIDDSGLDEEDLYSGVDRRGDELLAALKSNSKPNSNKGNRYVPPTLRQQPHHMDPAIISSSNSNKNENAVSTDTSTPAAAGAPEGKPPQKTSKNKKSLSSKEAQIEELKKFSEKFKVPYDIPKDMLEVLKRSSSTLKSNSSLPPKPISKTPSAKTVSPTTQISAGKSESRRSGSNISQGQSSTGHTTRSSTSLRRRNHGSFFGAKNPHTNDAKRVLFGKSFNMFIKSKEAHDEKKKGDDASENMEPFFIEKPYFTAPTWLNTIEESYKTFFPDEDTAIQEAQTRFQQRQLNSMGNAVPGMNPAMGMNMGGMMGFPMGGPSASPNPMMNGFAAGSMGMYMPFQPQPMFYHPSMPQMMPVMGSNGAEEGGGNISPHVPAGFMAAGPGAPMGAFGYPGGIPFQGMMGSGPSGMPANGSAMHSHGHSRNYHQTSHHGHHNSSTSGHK

[2] = biological target: Pbp1-myc (S. cerevisiae) (UniProt P53297); assay: as above

B1: Gas5 (protein, UniProt Q08193 20-462)
chain: ASSSNSSTPSIEIKGNAFFNSESGERFYIRGVDYQPGGSSNLTDPLADASVCDRDVPVLKDLGINTVRVYTVDNSQDHSHCMKLLQENGIYLILDVNTPTSAISRYDPACSYNADYLQNVFATIDTFADYDNVLGFFAGNEVINSVNTTNTATYVKAVVRDMKKYIKARKYRQIPVGYSAADIVANRQLAAEYFNCGDEADARIDMFGVNDYSWCGESSFVVSGYSTKMKLYQDYSVPVFLSEFGCNQVKSSRPFTEIEAIYSTQMSSVFSGGLVYEYSNETNNYGLVQIDGDKVTKLTDFENLKNEYSKVSNPEGNGGYSTSNNYSTCPDYEKGVWEANNTLPAMPSAASAYFTSGAGSPMGTGIATQQSCDAKDDDDEEDDDTSSSSSSSSSSSSSASSSSESSSSTSKASSSSPSASETSLLKSAASATSSSQSSSKSKG
- binding [1]: binds
- binding [2]: binds

B2: Ubp3 (protein, UniProt Q01477 1-912)
chain: MNMQDANKEESYSMYPKTSSPPPPTPTNMQIPIYQAPLQMYGYTQAPYLYPTQIPAYSFNMVNQNQPIYHQSGSPHHLPPQNNINGGSTTNNNNINKKKWHSNGITNNNGSSGNQGANSSGSGMSYNKSHTYHHNYSNNHIPMMASPNSGSNAGMKKQTNSSNGNGSSATSPSYSSYNSSSQYDLYKFDVTKLKNLKENSSNLIQLPLFINTTEAEFAAASVQRYELNMKALNLNSESLENSSVEKSSAHHHTKSHSIPKHNEEVKTETHGEEEDAHDKKPHASKDAHELKKKTEVKKEDAKQDRNEKVIQEPQATVLPVVDKKEPEESVEENTSKTSSPSPSPPAAKSWSAIASDAIKSRQASNKTVSGSMVTKTPISGTTAGVSSTNMAAATIGKSSSPLLSKQPQKKDKKYVPPSTKGIEPLGSIALRMCFDPDFISYVLRNKDVENKIPVHSIIPRGIINRANICFMSSVLQVLLYCKPFIDVINVLSTRNTNSRVGTSSCKLLDACLTMYKQFDKETYEKKFLENADDAEKTTESDAKKSSKSKSFQHCATADAVKPDEFYKTLSTIPKFKDLQWGHQEDAEEFLTHLLDQLHEELISAIDGLTDNEIQNMLQSINDEQLKVFFIRNLSRYGKAEFIKNASPRLKELIEKYGVINDDSTEENGWHEVSGSSKRGKKTKTAAKRTVEIVPSPISKLFGGQFRSVLDIPNNKESQSITLDPFQTIQLDISDAGVNDLETAFKKFSEYELLPFKSSSGNDVEAKKQTFIDKLPQVLLIQFKRFSFINNVNKDNAMTNYNAYNGRIEKIRKKIKYGHELIIPEESMSSITLKNNTSGIDDRRYKLTGVIYHHGVSSDGGHYTADVYHSEHNKWYRIDDVNITELEDDDVLKGGEEASDSRTAYILMYQKRN
- binding [1]: binds
- binding [2]: binds

B4: Whi4 (protein, UniProt Q07655 1-649)
chain: MSLVHNQTNLNESKFLIERAFSSSSETVPLSKEATYPMPTAYSFSAVRSNSETNIKRENPQGFAKEPIMTSMLHNLTMSTGKGNGNDVNSLAPHDVDVGPYCLLLRNLPKDITLRECYCIFSLATGVSSIELKRDDREPFNDNEKVVVVKFGSLSLVTHYANILNSKSEIFGPSFPFRSHIDVVNEQTQLPVSFQEHVSSGTTNSSPKNYQLSSSAQNEIQNQSFNTISYGKTSSSPLGPSAAKPRPSLLSERSLRFSFNDPFGLETISQRKESVPFLRNSISQHDLSNVTTTPVPAGMPPQKDAGKSLLLLEKDEINESIWNGDELVNDVGNSSFGASLQEPPMSSTPVMEWNASSTANIPLFQLSSQENHQSNLLPPSHHSISQDVPHIQSQPNLNNSGVIHSATSLPHYHLLNQINASTKTQSIQQSVSNVPSNLDLNLQTENGHPQSSAPNGSSIFNNQKVNQGFLVSEQDTSTISRQKECSSTASASAFSKNNETNVAGSTTISQADLSLLAKVPPPANPADQNPPCNTLYVGNLPPDATEQELRQLFSNQQGFRRLSFRNKMNSHGHGNGHGHGPICFVEFEDVSFATRALAELYGSQLPHPRPSLNNKGGIRLSFSKNPLGVRGSNSRSKSGYSFNGSYGKS
- binding [1]: binds
- binding [2]: binds

B6: Gbp2 (protein, UniProt P25555 1-427)
chain: MERELGMYGNDRSRSRSPVRRRLSDDRDRYDDYNDSSSNNGNGSRRQRRDRGSRFNDRYDQSYGGSRYHDDRNWPPRRGGRGRGGSRSFRGGRGGGRGRTLGPIVERDLERQFDATKRNFENSIFVRNLTFDCTPEDLKELFGTVGEVVEADIITSKGHHRGMGTVEFTKNESVQDAISKFDGALFMDRKLMVRQDNPPPEAAKEFSKKATREEIDNGFEVFIINLPYSMNWQSLKDMFKECGHVLRADVELDFNGFSRGFGSVIYPTEDEMIRAIDTFNGMEVEGRVLEVREGRFNKRKNNDRYNQRREDLEDTRGTEPGLAQDAAVHIDETAAKFTEGVNPGGDRNCFIYCSNLPFSTARSDLFDLFGPIGKINNAELKPQENGQPTGVAVVEYENLVDADFCIQKLNNYNYGGCSLQISYARRD
- binding [1]: binds
- binding [2]: binds

B7: eIF4G1 (protein, UniProt P39935 1-952)
chain: MTDETAHPTQSASKQESAALKQTGDDQQESQQQRGYTNYNNGSNYTQKKPYNSNRPHQQRGGKFGPNRYNNRGNYNGGGSFRGGHMGANSSNVPWTGYYNNYPVYYQPQQMAAAGSAPANPIPVEEKSPVPTKIEITTKSGEHLDLKEQHKAKLQSQERSTVSPQPESKLKETSDSTSTSTPTPTPSTNDSKASSEENISEAEKTRRNFIEQVKLRKAALEKKRKEQLEGSSGNNNIPMKTTPENVEEKGSDKPEVTEKTKPAEEKSAEPEVKQETPAEEGEQGEKGQIKEESTPKVLTFAERLKLKKQQKEREEKTEGKENKEVPVQEETKSAIESAPVPPSEQVKEETEVAETEQSNIDESATTPAIPTKSDEAEAEVEAEAGDAGTKIGLEAEIETTTDETDDGTNTVSHILNVLKDATPIEDVFSFNYPEGIEGPDIKYKKEHVKYTYGPTFLLQFKDKLNVKADAEWVQSTASKIVIPPGMGRGNRSRDSGRFGNNSSRGHDFRNTSVRNMDDRANSRTSSKRRSKRMNDDRRSNRSYTSRRDRERGSYRNEEKREDDKPKEEVAPLVPSANRWVPKFKSKKTEKKLAPDGKTELLDKDEVERKMKSLLNKLTLEMFDAISSEILAIANISVWETNGETLKAVIEQIFLKACDEPHWSSMYAQLCGKVVKELNPDITDETNEGKTGPKLVLHYLVARCHAEFDKGWTDKLPTNEDGTPLEPEMMSEEYYAAASAKRRGLGLVRFIGFLYRLNLLTGKMMFECFRRLMKDLTDSPSEETLESVVELLNTVGEQFETDSFRTGQATLEGSQLLDSLFGILDNIIQTAKISSRIKFKLIDIKELRHDKNWNSDKKDNGPKTIQQIHEEEERQRQLKNNSRSNSRRTNNSSNRHSFRRDAPPASKDSFITTRTYSQRNSQRAPPPKEEPAAPTSTATNMFSALMGESDDEE
- binding [1]: binds
- binding [2]: binds

Results, then the binder that gave them:

- binding [1]: binds
- binding [2]: binds
B3: Scp160 (protein, UniProt P06105 1-1222)
chain: MSEEQTAIDSPPSTVEGSVETVTTIDSPSTTASTIAATAEEHPQLEKKPTPLPSLKDLPSLGSNAAFANVKVSWGPNMKPAVSNSPSPSPSAPSLTTGLGAKRMRSKNIQEAFTLDLQSQLSITKPELSRIVQSVKKNHDVSVESTLSKNARTFLVSGVAANVHEAKRELVKKLTKPINAVIEVPSKCKASIIGSGGRTIREISDAYEVKINVSKEVNENSYDEDMDDTTSNVSLFGDFESVNLAKAKILAIVKEETKNATIKLVVEDEKYLPYIDVSEFASDEGDEEVKVQFYKKSGDIVILGPREKAKATKTSIQDYLKKLASNLDEEKVKIPSKFQFLIDAEELKEKYNVIVTFPSTPDDELVSFVGLRDKVGEAITYARSSSKSYVVESLDISKAHSKNLTHAKNLIMYFTKYSVLKGLEESHPNVKISLPSIQSLPTAETVTIHISAKSDEANDIKAVRKELISFVNNIPPSETLVITDLDYELFGGSIKHCLLASESSVAFVQFGDYYPNDNSILLVALTEDEDFKPSIEEIQASLNKANESLNSLRTKQNNMETKTYEFSEEVQDSLFKPSSATWKLIMEDISEQEGHLQIKLHTPEENQLTVRGDEKAAKAANKIFESILNSPSSKSKMTVNIPANSVARLIGNKGSNLQQIREKFACQIDIPNEENNNASKDKTVEVTLTGLEYNLTHAKKYLAAEAKKWADIITKELIVPVKFHGSLIGPHGTYRNRLQEKYNVFINFPRDNEIVTIRGPSRGVNKAHEELKALLDFEMENGHKMVINVPAEHVPRIIGKNGDNINDIRAEYGVEMDFLQKSTDPKAQETGEVELEITGSRQNIKDAAKRVESIVAEASDFVTEVLKIDHKYHKSIVGSGGHILREIISKAGGEEIRNKSVDIPNADSENKDITVQGPQKFVKKVVEEINKIVKDAENSVTKTIDIPAERKGALIGPGGIVRRQLESEFNINLFVPNKDDPSGKITITGAPENVEKAEKKILNEIIRENFDREVDVPASIYEYVSERGAFIQKLRMDLSVNVRFGNTSKKANKLARAPIEIPLEKVCGSTEGENAEKTKFTIEEVGAPTSSEEGDITMRLTYEPIDLSSILSDGEEKEVTKDTSNDSAKKEEALDTAVKLIKERIAKAPSATYAGYVWGADTRRFNMIVGPGGSNIKKIREAADVIINVPRKSDKVNDVVYIRGTKAGVEKAGEMVLKSLRR

- binding [1]: binds
- binding [2]: binds
B5: Yro2 (protein, UniProt P38079 1-344)
chain: MSDYVELLKRGGNEAIKINPPTGADFHITSRGSDWLFTVFCVNLLFGVILVPLMFRKPVKDRFVYYTAIAPNLFMSIAYFTMASNLGWIPVRAKYNHVQTSTQKEHPGYRQIFYARYVGWFLAFPWPIIQMSLLGGTPLWQIAFNVGMTEIFTVCWLIAACVHSTYKWGYYTIGIGAAIVVCISLMTTTFNLVKARGKDVSNVFITFMSVIMFLWLIAYPTCFGITDGGNVLQPDSATIFYGIIDLLILSILPVLFMPLANYLGIERLGLIFDEEPAEHVGPVAEKKMPSPASFKSSDSDSSIKEKLKLKKKHKKDKKKAKKAKKAKKAKKAQEEEEDVATDSE

From article PMC8782181
